According to PubChem BioAssay AID2283170 (EPA ToxCast):
This list was built around the results that the source calls inconclusive (neither active nor inactive); the mix of calls is not that of the screen. Potencies of inconclusive entries are doubtful fits and often do not repeat. Active and inactive are the calls of the source. Rule for the calls: active = hit-call score of the fitted dose curve at least 0.9, where 1 is the maximum; inconclusive = response in the unintended direction; inactive = score below 0.9.

By UniProt entry, the sequences of proteins in these tests, tags left out. Where a name states a change or a piece, a line headed by the entry shows the natural chain unless it says otherwise.
UniProt P06239: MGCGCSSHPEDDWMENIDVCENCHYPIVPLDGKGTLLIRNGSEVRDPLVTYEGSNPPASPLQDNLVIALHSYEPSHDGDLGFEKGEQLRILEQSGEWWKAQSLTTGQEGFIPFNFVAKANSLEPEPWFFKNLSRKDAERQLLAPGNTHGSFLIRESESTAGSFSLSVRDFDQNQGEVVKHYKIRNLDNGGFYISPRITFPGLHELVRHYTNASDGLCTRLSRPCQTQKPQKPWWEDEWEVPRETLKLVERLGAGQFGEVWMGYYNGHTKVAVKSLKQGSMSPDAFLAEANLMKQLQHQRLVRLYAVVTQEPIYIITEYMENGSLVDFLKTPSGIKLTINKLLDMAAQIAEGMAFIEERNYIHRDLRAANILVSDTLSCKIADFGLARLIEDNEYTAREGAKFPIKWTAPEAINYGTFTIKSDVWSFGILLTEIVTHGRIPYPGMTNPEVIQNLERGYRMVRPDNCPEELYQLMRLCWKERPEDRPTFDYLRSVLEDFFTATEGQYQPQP

biological target: human Lymphocyte-cell Factor Kinase (Lck), LCK (gene 3932) (UniProt P06239); test: NVS_ENZ_hLck: NovaScreen (NVS) Enzymatic Assay for human Lymphocyte-cell Factor Kinase (Lck)
Protocol: NVS_ENZ_hLck is a biochemical, single-readout assay that uses extracted gene-proteins in a cell-free assay. Measurements were taken 1 hour after chemical dosing in a 384-well plate.NVS_ENZ_hLck is one of one assay component(s) measured or calculated from the NVS_ENZ_hLck assay. It is designed to make measurements of enzyme activity, a form of enzyme reporter, as detected with fluorescence intensity signals by Fluorescence and electrophoretic mobility shift technology.Data from the assay component NVS_ENZ_hLck was analyzed into 1 assay endpoint. This assay endpoint, NVS_ENZ_hLck, was analyzed in the positive analysis fitting direction relative to DMSO as the negative control and baseline of activity. Using a type of enzyme reporter, loss-of-signal activity can be used to understand changes in the enzymatic activity as they relate to the gene LCK. Furthermore, this assay endpoint can be referred to as a primary readout, because this assay has produced […] where this one serves a enzymatic activity function. To generalize the intended target to other relatable targets, this assay endpoint is annotated to the kinase intended target family, where the subfamily is non-receptor tyrosine kinase.
Binding assays used specific radioligands (tritiated, iodinated) with non-radioactive competitive displacement ligands in agonist or antagonist protocols (as indicated) and various reference compounds and inhibitors to titrate specific binding to receptors and transporters. Most enzyme assays (CYPs, kinases, phosphatases, proteases, HDACs) used recombinant protein and specific substrates (fluorescence mostly, some colorimetric and radioactive) and inhibitors, followed by a biochemical separation of substrate and product. All assays for the biochemical HTS were initially run in duplicate at a single concentration (10 uM for CYP450 assays and 25 uM for all others). Assay-chemical combinations meeting a pre-defined threshold (e.g., 30% inhibition and other criteria defined below) were then run in singleton concentration-response format with maximum concentration of 20 uM for CYPs and 50 uM for all others. Each assay was run with positive and negative controls, and concurrent controls on every plate. The follow-up (secondary) screen tested active chemical-pairs in concentration series, as well as a few additional assays not tested in the primary screen, some selected negative inactives, and several cases re-run in the concentration series for confirmatory purposes.

SMILES	AC50	outcome
CC(C)[C@H](C(=O)O[C@H](C#N)c1cccc(Oc2ccccc2)c1)c1ccc(Cl)cc1	inconclusive: 0.477 µM	–
CNC(=S)S	–	inactive
O=S(=O)(O)C(F)(F)C(F)(F)C(F)(F)C(F)(F)C(F)(F)C(F)(F)C(F)(F)C(F)(F)F	active: 43.9 µM	–
Cc1ccc(-c2c(Cl)nc(C#N)n2S(=O)(=O)N(C)C)cc1	inconclusive: 4.66 µM	–
CC[C@H](C)[C@H]1O[C@]2(C=C[C@@H]1C)C[C@@H]1C[C@@H](C/C=C(\C)[C@@H](O[C@H]3C[C@H](OC)[C@@H](O[C@H]4C[C@H](OC)[C@@H](NC)[C@H](C)O4)[C@H](C)O3)[C@@H](C)/C=C/C=C3\CO[C@@H]4[C@H](O)C(C)=C[C@@H](C(=O)O1)[C@]34O)O2	active: 36 µM	–
CCCCNC(=O)n1c(NC(=O)OC)nc2ccccc21	inconclusive: 25 µM	–
Oc1cc(Cl)ccc1Oc1ccc(Cl)cc1Cl	inconclusive: 11.3 µM	–
